## Binding screen against folded nucleic acids

From ROBIN, a set of small-molecule microarray screens (doi:10.1002/anie.202211358).

Oligonucleotides screened, 5′ to 3′:
PreQ1: PreQ1 riboswitch RNA pseudoknot, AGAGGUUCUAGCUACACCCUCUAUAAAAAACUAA. From B. subtilis. About 24,000 compounds screened, about 170 hits.
SAM-II: SAM-II riboswitch RNA pseudoknot, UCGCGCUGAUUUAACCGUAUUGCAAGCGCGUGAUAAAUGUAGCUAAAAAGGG. About 21,000 compounds screened, about 200 hits.
TPP: TPP riboswitch RNA three-way junction, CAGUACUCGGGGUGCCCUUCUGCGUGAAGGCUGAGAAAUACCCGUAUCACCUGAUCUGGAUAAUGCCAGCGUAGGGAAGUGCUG. About 24,000 compounds screened, about 160 hits.

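The test is a small-molecule microarray: each compound is printed twice on a reactive slide, and binding shows as fluorescence of the labelled oligonucleotide after washing. The data file lists only calls. An earlier report of the laboratory on the PreQ1, TPP and SAM-II riboswitches (doi:10.1038/s41467-019-09493-3) used 1 µM RNA for 2 h and required a mean Z-score above 3 (spot signal-to-noise against the whole library), a score well above that on a control array, and duplicate spots agreeing (coefficient of variation under 100); it then also set aside compounds that hit other targets, which this list keeps. The cut-offs behind this list may differ. A missing hit is not proof of no binding, and a hit is not a measured affinity.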
“hit” means called a hit, “no hit” means screened and not called a hit.
The compounds are a random part of those screened.
A target missing from an entry has no call listed here.

For NS(=O)(=O)c1ccc(Cl)cc1[N+](=O)[O-] the calls were PreQ1: no hit; SAM-II: no hit; TPP: no hit.
For CCOC(=O)c1cnc(Nc2nc(C)c3ccc(C)cc3n2)nc1C the calls were PreQ1: no hit; SAM-II: no hit; TPP: no hit.
For CCOc1ccc(-c2csc(N)n2)cc1 the calls were PreQ1: no hit; SAM-II: no hit; TPP: no hit.
For Nc1ccccc1C=NCCCCN=Cc1ccccc1N the calls were PreQ1: no hit; SAM-II: no hit; TPP: no hit.
For O=C1OCC/C1=C\c1ccc(O)cc1 the calls were PreQ1: no hit; SAM-II: no hit; TPP: no hit.
For CN1CCC(N(CCc2ccccc2)C(=O)[C@@H](N)Cc2ccc(O)cc2)CC1 the calls were PreQ1: no hit; SAM-II: no hit; TPP: no hit.
For CN1CCC2(CC1)CN(C(=O)[C@H](N)Cc1ccccc1)CCN2C the calls were PreQ1: no hit; SAM-II: no hit; TPP: no hit.
For CCN(CC)CC(O)Cn1c(-c2ccccc2Cl)nc2ccccc21 (stereo unspecified) the calls were PreQ1: no hit; SAM-II: no hit; TPP: no hit.
For c1ccc2c(N3CCN(Cc4cc5n(n4)CCNC5)CC3)nsc2c1 the calls were PreQ1: no hit; SAM-II: no hit; TPP: no hit.
For Nc1nc(Cl)nc(N(c2ccccc2)c2ccccc2)n1 the calls were PreQ1: no hit; SAM-II: no hit; TPP: no hit.
For CC(C)C[C@@H](CO)n1cc(-c2ccc(F)c(Cl)c2)nn1 the calls were PreQ1: no hit; SAM-II: no hit; TPP: no hit.
For CSCCC(O)c1nc(C)nn1-c1ccc2c(c1)OCO2 (stereo unspecified) the calls were PreQ1: no hit; SAM-II: no hit; TPP: no hit.
For CCC(CNc1nc(N)nc(C)c1C)N(C)CC (stereo unspecified) the calls were PreQ1: no hit; SAM-II: no hit; TPP: no hit.
For Cc1ccc(F)cc1-c1cccc(CCN)c1 the calls were PreQ1: hit; SAM-II: no hit; TPP: hit.
For Cc1nccn1CCCC(=O)N[C@H]1CC[C@H]1NC1CCOCC1 the calls were PreQ1: no hit; SAM-II: no hit; TPP: no hit.
For COc1ccc(-c2nc(-c3ccc(N)cc3)n[nH]2)cc1 the calls were PreQ1: no hit; SAM-II: no hit; TPP: no hit.
For Cc1cc(Nc2ncc(Cl)c(Nc3ccccc3S(=O)(=O)C(C)C)n2)c(OC(C)C)cc1C1CCNCC1 the calls were PreQ1: no hit; SAM-II: no hit; TPP: no hit.
For CN(C)c1ccc(C(=C2C=CC(=[N+](C)C)C=C2)c2ccc(N(C)C)cc2)cc1 the calls were PreQ1: no hit; SAM-II: no hit; TPP: no hit.
For COc1ccc(-c2cc(N)n(S(=O)(=O)c3ccc(OC)c(OC)c3)n2)c(OC)c1 the calls were PreQ1: no hit; SAM-II: no hit; TPP: no hit.
For CC1(C)Nc2ccccc2N(Cc2ccc(Cl)c(Cl)c2)C1=O the calls were PreQ1: no hit; SAM-II: no hit; TPP: no hit.
For Cc1nn(-c2nc(CC(=O)N(CCO)CCO)cs2)c(C)c1Cl the calls were PreQ1: no hit; TPP: no hit.
For Cc1nc2ccccc2nc1CN1CCCCC(N)C1 (stereo unspecified) the calls were PreQ1: no hit; SAM-II: no hit; TPP: no hit.
For OCc1csc(-c2cccc(C(F)(F)F)c2)n1 the calls were PreQ1: no hit; SAM-II: no hit; TPP: no hit.
For Cc1cc(C(=O)N2CCN(c3nccnc3C#N)CC(O)C2)no1 (stereo unspecified) the calls were PreQ1: no hit; SAM-II: no hit; TPP: no hit.
For CNc1ccccc1C(=O)NCC1CCN(Cc2cccc(O)c2)C1 (stereo unspecified) the calls were PreQ1: no hit; SAM-II: no hit; TPP: no hit.
For CN(C)c1cncc(N2CC[C@](C)(O)[C@@H](O)C2)n1 the calls were PreQ1: no hit; SAM-II: no hit; TPP: no hit.
For CSc1ccccc1C(=O)N1CCOCC(CO)C1 (stereo unspecified) the calls were PreQ1: no hit; SAM-II: no hit; TPP: no hit.
For COCCc1ncc(CN2CCC(C(O)Cc3ccccc3)CC2)cn1 (stereo unspecified) the calls were PreQ1: no hit; SAM-II: no hit; TPP: no hit.
For COC(=O)CC1OCC=C2CN3CCC45C6=CC(=O)C(=O)C([N+](=O)[O-])=C6NC4C1C2CC35 (stereo unspecified) the calls were PreQ1: no hit; SAM-II: no hit; TPP: no hit.
For CCCCCNc1nc(C)c2c(c1C#N)CC(C)(C)OC2 the calls were PreQ1: no hit; SAM-II: no hit; TPP: no hit.
For CC(C)CC1(CO)CCCN(C(=O)c2cccc3cnccc23)C1 (stereo unspecified) the calls were PreQ1: no hit; SAM-II: no hit; TPP: no hit.
For NC(=O)c1c[nH]nc1NCc1ccc2c(c1)OCO2 the calls were PreQ1: hit; SAM-II: no hit; TPP: no hit.
For COc1ccc(CCNc2cc(C)ncn2)cc1OC the calls were PreQ1: no hit; TPP: no hit.
For CCOc1ncccc1C(=O)N1C[C@@H]2c3ccccc3OC[C@]2(CO)C1 the calls were PreQ1: no hit; SAM-II: no hit; TPP: no hit.
For COc1ccc(N2CCNCC2)c([N+](=O)[O-])c1.Cl the calls were PreQ1: no hit; SAM-II: no hit; TPP: no hit.
For Cc1cc(C)c2c(NCC(O)CN(C)C)ncnc2n1 (stereo unspecified) the calls were PreQ1: no hit; SAM-II: no hit; TPP: no hit.
For CNCCN1C(=O)CC[C@H]2CN(c3nc4ccccc4s3)CC[C@H]21 the calls were PreQ1: no hit; SAM-II: no hit; TPP: no hit.

For reference, 2 entries once more:

- CC1(C)Nc2ccccc2N(Cc2ccc(Cl)c(Cl)c2)C1=O | PreQ1: no hit; SAM-II: no hit; TPP: no hit
- CCOc1ccc(-c2csc(N)n2)cc1 | PreQ1: no hit; SAM-II: no hit; TPP: no hit